The text below walks through data of patent US20040121965A1, “Method of treating resistant tumors” (Wyeth Holdings Corporation, priority 2002, published 2004).

This assay relates to MCF7. The assay is described as follows: Cell survival assay (SRB), MCF7. It counts as cell-based. The following applies: Homo sapiens, 72 h; MCF7, breast; 3 days, SRB staining. As for the experimental part:
2.2. Cell Survival Assay: Standard Pharmacological Test Procedure. […] Compounds are incubated with cells for 3 days.

`CC(=O)O[C@H]1C(=O)[C@@]2(C)[C@H]([C@H](OC(=O)c3ccccc3)[C@]3(O)C[C@H](OC(=O)[C@H](O)[C@@H](NC(=O)c4ccccc4)c4ccccc4)C(C)=C1C3(C)C)[C@]1(OC(C)=O)CO[C@@H]1C[C@@H]2O` [paclitaxel, reference compound] yielded an IC50 of 8.1 ± 1.9 nM.
